From patent publication US5151442A, “Chroman derivative active on the central nervous system, their method of preparation and pharmaceutical compositions in which they are present” (Sanofi, priority 1988, dated 1992)
The name of at least one read-out is uncertain.

Test system: Female mice (Iffa Credo)
Assay: forced swimming test according to Porsolt et al. (immobility times over 4 minutes, 2nd to 6th minute)
Format: in vivo
Details: i.p., dose not printed (second line of SR 44665)
Procedure: Thus the products according to the invention were subjected to the forced swimming test according to Porsolt et al. (Archives Internationales de Pharmacodynamie, 1977, 229, 327-336). Female mice (Iffa Credo) weighing 22-24 g are immersed for a period of 6 minutes in a beaker containing 800 ml of water at 24°±1° C. The immobility times are measured over 4 minutes from the 2nd to the 6th minute. The results are expressed as the percentage inhibition of the immobility times of the treated animals compared with the control animals.

In the case of `CC1(C)Oc2ccc(C#N)cc2[C@@H](NS(=O)(=O)c2ccccc2C(F)(F)F)[C@@H]1O` (relative stereo) [SR 44665, Trans-6-cyano-2,2-dimethyl-3-hydroxy-4-(2-trifluoromethylbenzene-1-sulfonamido)chroman], the “% inhibition (of the immobility times compared with control animals)” value was 34%.
